Measurements as given in patent US12570608B2, “Compound derived from quinoline, use of a compound, composition and method for the treatment or prophylaxis of a condition caused by a blood parasite” (FUNDÃÇAO OSWALDO CRUZ, priority 2019, dated 2026).

Test system: β-hematin formation
Experiment: Inhibition of β-hematin formation (lipid-catalysed heme crystallization)
Format: biochemical
Conditions: fold higher than observed for CQ

Compound: C#CCNc1ccnc2cc(Cl)ccc12 [PCQ]
- β-hematin inhibitory concentration relative to CQ: 4 fold
